The record followed here is PubChem BioAssay AID2685 (National Center for Advancing Translational Sciences (NCATS), 2010).

The assay is described as follows: qHTS Assay for Lipid Storage Modulators in Drosophila S3 Cells.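 For cell number change: cells counted by Cell Tracker Red CMTPX staining in the red channel.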 The note with it: BODIPY lipid droplet fluorescence, 18-24 h; for cell number change: measured here: cell count max response, cells fed with added oleic acid. Summed up:
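Drosophila S3 cells loaded with oleic acid (400 uM, as added) and compounds at several concentrations; lipid droplets imaged by 488-nm laser-scanning cytometry, 500–530 nm intensity and object ratio to cell channel. Percent activity normalized to 20 uM Triacsin C.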
In general terms: qHTS replaces the single test concentration by a dilution series.

[1] abbreviates: measured here: lipid fluorescence (Fed channel) AC50, cells fed with added oleic acid.
The mark [2] stands for this setting: measured here: cell number channel AC50, cells fed with added oleic acid.

Several values for one entry are separate records, joined by “and”; a condition that tells them apart may be missing. Equal values may be shown once. This is one part of the list. The main result of the screen is listed elsewhere. These columns were measured beside it and carry no call. The list favours compounds with an active or inconclusive main result. Potencies come from curve fits of mixed quality, noted in brackets.

One may read the AC50 as the midpoint of the concentration-response curve, whichever way the signal moves. Lower therefore signals activity at low concentration.

On to `COc1ccc(NC(=O)C2CCC(C(C)(C)C)CC2)cc1S(=O)(=O)N1CCOCC1` (stereo not given), for which the cell number change is -10.8%. For the same molecule, under setting [1], the AC50 was 2.06 µM [rising, partial curve, poor fit].
Take `CCn1c(SCC(=O)Nc2nc(C)cs2)nnc1-c1cccnc1`: the AC50 under setting [2] is 0.231 µM [rising, full curve, poor fit].
`COC(CNC(=O)C1CCN(C(=O)c2cc3oc(C)cc3n2Cc2c(F)cccc2Cl)CC1)OC`: the cell number change was -14.1%. For the same molecule, the AC50 under setting [2] is 4.61 µM [falling, single point].
On to `O=C1CC(c2ccco2)CC2=C1C=Nc1ccccc1N2` (stereo not given), for which the cell number change was -11.9%.
For the molecule `c1ccc(N2CCN(c3nc(-c4cccs4)nc4ccccc34)CC2)cc1`, the cell number change is 60.3%. In addition, the AC50 under setting [2] is 16.4 µM [rising, single point]. The AC50 under setting [1] is 2.31 µM [falling, partial curve, poor fit].
For `CS(=O)(=O)N(CC(=O)N1CCN(c2ccc(F)cc2)CC1)C1CCCCC1`, the AC50 under setting [2] is 0.291 µM [rising, full curve, poor fit] and the AC50 under setting [1] was 0.461 µM [rising, partial curve, poor fit].
Regarding `COc1ccc(NC(=O)c2ccc(-c3ccccc3Cl)o2)cc1`, the cell number change stood at 0.813%. Besides, the concentration at half-maximal activity (AC50) under setting [1] was 10.3 µM [rising, partial curve].
For `O=C(COC(=O)c1ccccc1)c1ccc2c(c1)OCCO2`, the cell number change was -50%. Also, the AC50 under setting [2] was 25.9 µM [falling, single point].
As to `CCC(=O)Nc1c2c(nn1-c1ccc(C)cc1C)CSC2`, the cell number change is -32.4%. Also, under setting [2], the AC50 is 1.3 µM [falling, full curve, poor fit]. Besides, the AC50 under setting [1] was 1.84 µM [falling, partial curve].
`CC(C)N(C(=O)COC(=O)CNS(=O)(=O)c1ccccc1F)c1ccccc1`: the cell number change is -41.7%.
Same read-out and setting: as for `COc1ccc(-c2nnn(CC(=O)NC3CCCc4ccccc43)n2)cc1OC` (stereo not given), the figure is -12.9%.
On to `COc1ccc(-c2noc(N3CCC(C(=O)Nc4ccccc4F)CC3)n2)cc1`, for which the cell number change amounted to 4.61%. Moreover, under setting [1], the AC50 is 6.51 µM [rising, partial curve, poor fit].
Consider `CC(=O)OC[C@H]1O[C@@H](O/N=C/C[C@@H]2C=C[C@H](OC(C)=O)[C@@H](COC(C)=O)O2)[C@H](OC(C)=O)[C@@H](OC(C)=O)[C@@H]1OC(C)=O`, for which the cell number change was found to be 3.68%. Under setting [1], the AC50 was 29.1 µM [rising, single point].
As for `COc1cccc(C(=O)Nc2cccc(C(C)=O)c2)c1`, the cell number change is -4.55%. Also, the AC50 under setting [1] is 2.06 µM [rising, partial curve].
Turning to `CSc1nnc(CNS(=O)(=O)c2ccc(F)cc2)n1C`, the cell number change is 7.14%.
Same read-out and setting: for `CCC(=O)N1CCc2cc(S(=O)(=O)NCCCN(CC)Cc3ccccc3)ccc21` the value was 20.8%.
On to `Cc1nn2c(N)csc2nc1=O`, for which the cell number change is -15.6%. For the same molecule, under setting [1], the concentration at half-maximal activity (AC50) was 5.8 µM [falling, full curve, poor fit].
For the molecule `Cc1cc(C)c(OCC(O)CN2CCN(C(=O)c3ccccc3)CC2)c(C)c1` (stereo not given), the cell number change turned out to be 1.93%. Also, the AC50 under setting [1] was 29.1 µM [rising, single point].
As for `COc1cc(NC(=O)c2cc(-c3cccc(O)c3)on2)cc(OC)c1OC`, the cell number change is 27.7%. Also, the AC50 under setting [1] is 7.31 µM [rising, single point].
`O=C(COC(=O)c1cc(=O)[nH]c2ccccc12)NC1CCCC1`: the cell number change was -50.6%. Further, under setting [1], the AC50 is 29.1 µM [falling, single point].
As for `CCCCNC(=O)CSc1nnc(-c2cccc(S(=O)(=O)N3CCOCC3)c2)o1`, the cell number change is -35.6%. Moreover, the AC50 under setting [2] is 25.9 µM [falling, single point]. The AC50 under setting [1] was 6.51 µM [falling, single point].
Turning to `Cc1ccc(-c2noc(CCCC(=O)NCC3CCCO3)n2)cc1` (stereo not given), the cell number change is -4.76%. Besides, under setting [2], the AC50 was 0.116 µM [rising, full curve, poor fit]. The AC50 under setting [1] was 29.1 µM [falling, single point].
Turning to `Cc1ccc(S(=O)(=O)N2CCN(C(=O)CN3C(=O)c4ccccc4C3=O)CC2)c(C)c1`, the cell number change was 21.6%. Also, under setting [1], the concentration at half-maximal activity (AC50) is 0.461 µM [rising, full curve, poor fit].
Consider `CC(=O)N1c2ccc(S(=O)(=O)N3CCC(C(=O)N4CCCC(C)C4)CC3)cc2CC1C` (stereo not given), for which the cell number change was -19.1%. Also, under setting [1], the AC50 was 20.6 µM [falling, single point].
Turning to `Cn1nc(CSc2ccccc2)c(C=O)c1Cl`, the cell number change was found to be 22.1%. For the same molecule, the AC50 under setting [1] is 0.651 µM [falling, single point].
With `O=C(NCc1ccccc1)c1ccc(N2CCC3(CC2)CC(c2ccc(Cl)cc2)=NO3)c([N+](=O)[O-])c1`, the cell number change came out at 16.5%. Besides, under setting [1], the AC50 is 0.13 µM [falling, full curve, poor fit].
In the case of `CCN(CC)CCCN1C(=O)C(=O)/C(=C(/O)c2ccc3c(c2)CC(C)O3)C1c1cccnc1` (stereo not given), the cell number change is -10.4%. The concentration at half-maximal activity (AC50) under setting [1] was 16.4 µM [falling, single point].
Consider `O=C1COc2ccc(S(=O)(=O)NCc3ccc(Cl)cc3)cc2N1`, for which the cell number change stood at 11.8%. Besides, the AC50 under setting [1] was 29.1 µM [rising, single point].
`Cc1nc(SCC(=O)NC2(C#N)CCCC2)n(CC(C)C)c1C`: the cell number change was -2%.
For `NC(=O)C1CN(C(=O)c2nn(Cc3ccccc3)c(=O)c3ccccc23)c2ccccc2O1` (stereo not given), the cell number change stood at 228%. Also, the half-maximal activity concentration (AC50) under setting [2] is 10.3 µM [rising, partial curve].
Turning to `c1ccc(CNc2ncnc3ccccc23)cc1`, the cell number change is -5.81% and -39.6%. The AC50 under setting [2] was 2.59 µM [falling, partial curve]. Moreover, the AC50 under setting [1] is 18.4 µM [falling, single point] and 8.2 µM [falling, partial curve].
As to `COc1ccc(/C=C2\S/C(=N/S(=O)(=O)c3cccs3)NC2=O)cc1`, the cell number change was 15%.
For `COc1ccc(CCNC(=O)CSc2ccc3nnc(CCNC(=O)c4ccccc4)n3n2)cc1OC`, the cell number change turned out to be 23.2%. For the same molecule, the AC50 under setting [1] is 29.1 µM [rising, single point].
In the case of `CC(=O)Nc1nc(-c2ccc(Br)s2)cs1`, the cell number change came out at 34.3%. Also, the AC50 under setting [2] is 5.17 µM [rising, full curve, poor fit].
Consider `CC(C)c1csc(CN2CCC(CCC(=O)NCC3CCCO3)CC2)n1` (stereo not given), for which the cell number change stood at 24.3%.
As to `CCn1nc(C(=O)NNC(=O)COc2ccc(OC)cc2)c2ccccc2c1=O`, the cell number change stood at 19%.
Regarding `CC(C)OCCCN1CN(S(=O)(=O)c2ccccc2)c2nc3ccccc3nc21`, the cell number change turned out to be 36.8%. Also, the AC50 under setting [2] is 9.2 µM [rising, partial curve]. Moreover, the AC50 under setting [1] was 0.651 µM [rising, full curve].
For `N=c1n(Cc2ccccc2)c2ccccc2n1CC(O)COc1ccccc1` (stereo not given), the cell number change is -39.4%. Besides, under setting [2], the AC50 is 14.6 µM [falling, partial curve]. The AC50 under setting [1] is 32.6 µM [falling, single point].
With `O=C(Nc1cccc(Cl)c1)N(Cc1nc2ccccc2c(=O)[nH]1)Cc1cccs1`, the cell number change turned out to be 7.39%. Further, the AC50 under setting [1] is 6.51 µM [rising, partial curve, poor fit].
`COc1cccc(NC(=O)CSc2nnc(-c3cc(C)[nH]n3)n2N)c1`: the cell number change worked out at 7.78%.
Regarding `Nc1ccc(-c2nc3ccc([N+](=O)[O-])cc3[nH]2)cc1`, the cell number change is -17.5%. In addition, the AC50 under setting [1] was 29.1 µM [rising, single point].
In the case of `Nc1c(C(=O)NCC2CCCO2)sc(=S)n1-c1ccccc1` (stereo not given), the cell number change is 19.2%. The AC50 under setting [1] is 0.058 µM [falling, full curve, poor fit].
For `COc1ccc(NC(=O)CN2C(=O)NC3(CCCC3)C2=O)cc1OC`, the cell number change stood at 15.9%. The AC50 under setting [1] was 29.1 µM [falling, single point].
For the molecule `O=C1NC[C@@H](Cc2ccc(O)cc2)N(CCc2cccc3ccccc23)C1=O`, the cell number change turned out to be 0.485%.
As for `O=C(COc1ccccc1Br)N1CCN(c2ccccc2)CC1`, the cell number change was found to be 155%. Moreover, under setting [2], the AC50 was 4.61 µM [rising, partial curve]. Besides, under setting [1], the AC50 is 1.64 µM [rising, partial curve].
With `CCCn1c(SCC(=O)N2CCCCC2)nc2c1c(=O)n(C)c(=O)n2C`, the cell number change is 6.58%. Besides, the AC50 under setting [1] is 0.112 µM [rising, full curve, poor fit].
Take `CC1CN(C(=O)c2cc3ccccc3cc2O)CC(C)O1` (stereo not given): the cell number change was -50%. In addition, under setting [2], the AC50 is 0.00517 µM [falling, full curve, poor fit]. Moreover, under setting [1], the AC50 is 20.6 µM [rising, single point].
In the case of `C=CCn1cc(/C=C2\SC(N3CCOCC3)=NC2=O)c2ccccc21`, the cell number change is -0.743%.
With `O=C(Nc1ccccc1Cl)c1cc(S(=O)(=O)N2CCOCC2)cs1`, the cell number change is -20%. Under setting [1], the half-maximal activity concentration (AC50) is 6.51 µM [rising, single point].
On to `CCCn1c(SCC(=O)N2c3ccccc3Sc3ccccc32)nc2ccccc21`, for which the cell number change was 26.8%. Besides, the AC50 under setting [2] is 0.517 µM [falling, single point]. The AC50 under setting [1] is 25.9 µM [rising, single point].
For `Cc1c(C(=O)O)sc2nc3n(c(=O)c12)CCCCC3`, the cell number change was determined as 2.04%. The concentration at half-maximal activity (AC50) under setting [1] is 6.51 µM [falling, single point].
As for `COc1ccc(NC(=O)CSc2nc(C3CC3)nc3ccccc23)c(OC)c1`, the cell number change stood at 5%.
Regarding `COc1ccc(CC(=O)N/N=C\c2cc(Br)c(O)c(Br)c2)cc1`, the cell number change amounted to 12.2%.
For `COC(=O)CCCCC(=O)C1C(=O)CC(C)(C)C(C(=O)OC)C1=O` (stereo not given), the cell number change is -199%. Further, the half-maximal activity concentration (AC50) under setting [2] was 29.1 µM [falling, single point]. Besides, under setting [1], the AC50 is 29.1 µM [falling, partial curve].
In the case of `Cn1cc(Cl)c(C(=O)OCC(=O)Nc2cccc(Cl)c2)n1`, the cell number change is -2.02%. For the same molecule, the AC50 under setting [1] is 0.13 µM [falling, full curve, poor fit].
For the molecule `N#Cc1ccc(COn2nnc3ccccc32)cc1`, the AC50 under setting [2] is 0.092 µM [falling, single point].
For the molecule `CC(=O)N1CCC(N(CCN2CCOCC2)C(=S)Nc2cc(C)ccc2C)CC1`, the cell number change was -11.8%. For the same molecule, under setting [1], the AC50 is 3.26 µM [falling, full curve, poor fit].
As for `CNc1ncnc(Sc2ccc(Cl)cc2)c1[N+](=O)[O-]`, the cell number change was -12.5%. Under setting [2], the AC50 was 0.231 µM [falling, full curve]. For the same molecule, under setting [1], the AC50 was 0.206 µM [falling, full curve].
On to `Cc1ccccc1NC(=O)c1ccccc1NS(=O)(=O)c1cccc2cccnc12`, for which the cell number change stood at 4.21%.
Take `COc1ccc(C(=O)/C=C/Nc2ccc(S(=O)(=O)Nc3nc(C)cc(C)n3)cc2)cc1OC`: the cell number change was determined as 8.97%. The AC50 under setting [1] was 3.26 µM [rising, partial curve].
